Laboratory results: patent US20200308559A1, “Composition for detecting protein-protein interactions comprising fragments of secreted alkaline phosphatase (SEAP) and method for detecting protein-protein interactions using the same” (priority 2019, published 2020)
No constants are given. Whether binding was seen depends on the method and setting. Some results given as binding are weak or reduced against the parent protein; the word gives no strength.

Protein sequences, listed by entry. Tags and fused reporters are not part of them. Lines headed by an entry give the natural chain unless they say otherwise; changes in a name come on top.
UniProt P05187: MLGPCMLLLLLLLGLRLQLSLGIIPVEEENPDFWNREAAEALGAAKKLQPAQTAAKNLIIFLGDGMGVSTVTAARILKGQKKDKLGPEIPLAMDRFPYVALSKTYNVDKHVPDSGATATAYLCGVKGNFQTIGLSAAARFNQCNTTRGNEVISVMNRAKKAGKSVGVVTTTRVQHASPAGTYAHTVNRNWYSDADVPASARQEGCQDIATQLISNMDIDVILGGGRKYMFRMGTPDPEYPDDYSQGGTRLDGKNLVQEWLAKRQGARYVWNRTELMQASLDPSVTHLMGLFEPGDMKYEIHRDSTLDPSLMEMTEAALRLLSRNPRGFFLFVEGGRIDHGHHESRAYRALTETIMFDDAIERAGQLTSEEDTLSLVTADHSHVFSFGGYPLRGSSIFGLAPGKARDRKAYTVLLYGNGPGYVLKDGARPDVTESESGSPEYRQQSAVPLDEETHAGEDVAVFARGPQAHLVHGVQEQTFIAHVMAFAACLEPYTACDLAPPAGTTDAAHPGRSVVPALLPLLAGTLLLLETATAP

Target: SEAP C-terminal fragment cleaved at amino acid position 8 (9-502), fused to FRB (Homo sapiens (Human)) (UniProt P05187)
Test: split-SEAP complementation in HEK-293T cells, 100 nM rapamycin, pNpp absorbance at 405 nm

binding: binds
Substance: HA-FKBP-snSEAP8 (SEAP N-terminal fragment 1-8 fused to the C-terminal of FKBP12) (from UniProt P62942 2-108)
